± gives the standard deviation of the averaged measurements. Some of the results follow.
Compound: Nc1nc2c(ncn2[C@@H]2O[C@H](COP(=O)(O)OP(=O)(O)OP(=O)(O)O)[C@@H](O)[C@H]2O)c(=O)[nH]1 [guanosine triphosphate]
Assay: NP40-soluble protein abundance relative to vehicle (solubility fold change) (ratio); higher = more soluble protein in presence of GTP
Procedure, shortened: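 Eight concentrations, 0.1 to 10 mM, were tested on Jurkat crude lysate for 10 min at room temperature and then 3 min at 37 °C, in three independent experiments. The lysate was solubilised with 0.8% NP40 and benzonase, ultracentrifuged, and the supernatant TMT-labelled for LC-MS/MS. Each value is the fold change against the detergent-processed vehicle in its own replicate, from vsn-normalised intensities.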

Protein sequences, listed by entry. Tags and fused reporters are not part of them. Lines headed by an entry give the natural chain unless they say otherwise; changes in a name come on top.
UniProt O95163: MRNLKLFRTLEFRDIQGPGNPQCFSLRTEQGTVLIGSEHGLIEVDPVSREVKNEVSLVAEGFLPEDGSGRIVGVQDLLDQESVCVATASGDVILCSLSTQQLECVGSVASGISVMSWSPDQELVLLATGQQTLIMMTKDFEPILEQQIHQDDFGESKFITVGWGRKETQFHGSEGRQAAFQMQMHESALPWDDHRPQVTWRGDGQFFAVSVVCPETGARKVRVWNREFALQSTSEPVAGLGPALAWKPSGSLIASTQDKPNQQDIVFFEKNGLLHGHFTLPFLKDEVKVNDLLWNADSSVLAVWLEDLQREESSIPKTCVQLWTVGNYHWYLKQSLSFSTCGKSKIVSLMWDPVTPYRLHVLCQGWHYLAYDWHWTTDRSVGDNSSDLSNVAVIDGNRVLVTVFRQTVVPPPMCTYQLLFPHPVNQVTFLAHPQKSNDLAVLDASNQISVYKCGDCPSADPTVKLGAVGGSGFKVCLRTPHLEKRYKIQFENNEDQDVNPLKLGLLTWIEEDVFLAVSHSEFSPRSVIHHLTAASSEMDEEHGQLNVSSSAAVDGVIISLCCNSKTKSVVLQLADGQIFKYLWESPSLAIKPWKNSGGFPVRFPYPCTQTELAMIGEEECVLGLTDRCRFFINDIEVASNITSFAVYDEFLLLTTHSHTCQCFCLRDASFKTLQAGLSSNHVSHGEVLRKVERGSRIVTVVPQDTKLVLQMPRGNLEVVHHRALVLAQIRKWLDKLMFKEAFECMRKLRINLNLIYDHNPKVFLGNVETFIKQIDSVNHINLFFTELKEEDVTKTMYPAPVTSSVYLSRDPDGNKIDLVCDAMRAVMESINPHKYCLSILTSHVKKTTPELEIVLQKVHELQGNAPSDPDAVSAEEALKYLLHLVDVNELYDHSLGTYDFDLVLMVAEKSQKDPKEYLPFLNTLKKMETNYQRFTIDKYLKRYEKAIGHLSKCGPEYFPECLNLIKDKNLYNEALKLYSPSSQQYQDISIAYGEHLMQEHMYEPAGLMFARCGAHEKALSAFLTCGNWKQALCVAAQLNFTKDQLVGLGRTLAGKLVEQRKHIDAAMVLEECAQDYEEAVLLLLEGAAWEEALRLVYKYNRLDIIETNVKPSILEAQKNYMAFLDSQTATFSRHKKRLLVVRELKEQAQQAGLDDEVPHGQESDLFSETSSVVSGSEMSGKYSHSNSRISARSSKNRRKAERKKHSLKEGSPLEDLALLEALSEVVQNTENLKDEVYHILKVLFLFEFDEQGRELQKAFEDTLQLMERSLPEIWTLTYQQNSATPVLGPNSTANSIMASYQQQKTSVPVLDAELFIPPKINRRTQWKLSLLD
UniProt O95235: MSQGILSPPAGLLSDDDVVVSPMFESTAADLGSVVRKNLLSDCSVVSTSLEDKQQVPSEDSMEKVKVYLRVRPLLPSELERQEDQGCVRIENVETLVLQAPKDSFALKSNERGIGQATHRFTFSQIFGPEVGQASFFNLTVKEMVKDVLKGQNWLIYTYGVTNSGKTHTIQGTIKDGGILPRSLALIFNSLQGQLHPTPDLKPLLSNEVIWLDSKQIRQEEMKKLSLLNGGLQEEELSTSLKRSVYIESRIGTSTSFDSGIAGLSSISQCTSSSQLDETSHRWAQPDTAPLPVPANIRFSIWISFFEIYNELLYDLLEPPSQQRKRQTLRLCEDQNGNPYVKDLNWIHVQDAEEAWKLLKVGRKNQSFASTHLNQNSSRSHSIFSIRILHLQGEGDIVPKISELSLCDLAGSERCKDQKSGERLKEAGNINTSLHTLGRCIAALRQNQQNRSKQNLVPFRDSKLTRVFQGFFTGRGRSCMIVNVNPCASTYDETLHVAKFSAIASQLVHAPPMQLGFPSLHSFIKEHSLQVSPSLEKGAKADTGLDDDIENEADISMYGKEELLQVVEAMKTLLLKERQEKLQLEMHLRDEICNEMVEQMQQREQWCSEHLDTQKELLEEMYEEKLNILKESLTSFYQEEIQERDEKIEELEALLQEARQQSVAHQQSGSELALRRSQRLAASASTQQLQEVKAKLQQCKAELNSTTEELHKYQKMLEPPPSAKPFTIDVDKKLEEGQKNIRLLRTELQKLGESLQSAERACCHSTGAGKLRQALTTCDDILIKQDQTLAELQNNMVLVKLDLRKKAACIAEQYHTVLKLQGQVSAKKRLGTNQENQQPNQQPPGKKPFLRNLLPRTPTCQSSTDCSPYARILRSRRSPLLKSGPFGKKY
UniProt P48735: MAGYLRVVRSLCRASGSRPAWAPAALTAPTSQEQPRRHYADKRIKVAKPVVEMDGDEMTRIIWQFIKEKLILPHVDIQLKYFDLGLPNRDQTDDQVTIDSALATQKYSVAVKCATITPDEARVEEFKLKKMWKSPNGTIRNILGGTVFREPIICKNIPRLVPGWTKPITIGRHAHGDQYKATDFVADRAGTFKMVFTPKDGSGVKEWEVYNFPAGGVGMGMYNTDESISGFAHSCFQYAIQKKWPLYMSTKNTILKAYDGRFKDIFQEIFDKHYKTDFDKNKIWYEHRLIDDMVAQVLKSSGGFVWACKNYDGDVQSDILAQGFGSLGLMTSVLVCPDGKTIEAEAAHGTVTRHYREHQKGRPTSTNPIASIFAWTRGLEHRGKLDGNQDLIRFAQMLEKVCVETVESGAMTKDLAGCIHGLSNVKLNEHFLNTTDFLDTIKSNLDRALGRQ
UniProt O95373, whole entry: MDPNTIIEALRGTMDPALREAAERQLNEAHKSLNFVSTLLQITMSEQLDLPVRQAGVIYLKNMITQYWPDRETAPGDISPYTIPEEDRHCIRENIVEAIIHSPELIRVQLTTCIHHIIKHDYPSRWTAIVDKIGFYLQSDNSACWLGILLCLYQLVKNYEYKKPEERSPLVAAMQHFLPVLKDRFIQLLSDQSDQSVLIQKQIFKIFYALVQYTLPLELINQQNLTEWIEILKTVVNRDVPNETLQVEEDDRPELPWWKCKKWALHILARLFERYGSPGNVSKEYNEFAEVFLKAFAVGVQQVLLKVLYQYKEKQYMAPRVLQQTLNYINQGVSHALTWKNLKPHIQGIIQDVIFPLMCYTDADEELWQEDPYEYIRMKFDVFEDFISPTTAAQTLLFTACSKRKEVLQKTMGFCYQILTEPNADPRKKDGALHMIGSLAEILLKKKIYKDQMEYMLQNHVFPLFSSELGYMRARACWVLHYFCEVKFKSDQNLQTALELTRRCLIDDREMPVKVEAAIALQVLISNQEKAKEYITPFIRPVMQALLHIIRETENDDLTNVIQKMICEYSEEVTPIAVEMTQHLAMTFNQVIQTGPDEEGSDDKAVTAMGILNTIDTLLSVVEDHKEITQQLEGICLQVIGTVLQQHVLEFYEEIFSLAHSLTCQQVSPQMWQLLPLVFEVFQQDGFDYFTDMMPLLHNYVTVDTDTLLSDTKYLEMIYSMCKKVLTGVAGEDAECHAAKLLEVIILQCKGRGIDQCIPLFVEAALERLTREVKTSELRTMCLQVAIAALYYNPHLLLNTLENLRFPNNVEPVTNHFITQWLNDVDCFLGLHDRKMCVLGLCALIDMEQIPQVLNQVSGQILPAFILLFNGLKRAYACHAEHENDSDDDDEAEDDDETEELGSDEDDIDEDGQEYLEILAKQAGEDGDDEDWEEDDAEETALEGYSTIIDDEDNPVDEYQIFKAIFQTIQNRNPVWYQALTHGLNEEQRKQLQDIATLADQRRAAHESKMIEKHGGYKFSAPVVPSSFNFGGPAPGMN
UniProt O95182, whole entry: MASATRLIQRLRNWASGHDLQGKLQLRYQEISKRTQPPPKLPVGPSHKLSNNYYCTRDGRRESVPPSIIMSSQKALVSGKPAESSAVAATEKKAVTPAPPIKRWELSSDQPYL
UniProt O95983: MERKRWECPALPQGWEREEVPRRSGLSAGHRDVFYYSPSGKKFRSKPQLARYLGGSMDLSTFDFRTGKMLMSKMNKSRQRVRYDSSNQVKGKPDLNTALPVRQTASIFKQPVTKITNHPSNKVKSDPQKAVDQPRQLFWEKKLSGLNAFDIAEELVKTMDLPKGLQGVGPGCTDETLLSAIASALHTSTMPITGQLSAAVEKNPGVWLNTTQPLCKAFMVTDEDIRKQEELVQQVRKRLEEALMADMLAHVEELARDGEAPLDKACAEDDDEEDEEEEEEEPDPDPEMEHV
UniProt O75530, whole entry, looked up: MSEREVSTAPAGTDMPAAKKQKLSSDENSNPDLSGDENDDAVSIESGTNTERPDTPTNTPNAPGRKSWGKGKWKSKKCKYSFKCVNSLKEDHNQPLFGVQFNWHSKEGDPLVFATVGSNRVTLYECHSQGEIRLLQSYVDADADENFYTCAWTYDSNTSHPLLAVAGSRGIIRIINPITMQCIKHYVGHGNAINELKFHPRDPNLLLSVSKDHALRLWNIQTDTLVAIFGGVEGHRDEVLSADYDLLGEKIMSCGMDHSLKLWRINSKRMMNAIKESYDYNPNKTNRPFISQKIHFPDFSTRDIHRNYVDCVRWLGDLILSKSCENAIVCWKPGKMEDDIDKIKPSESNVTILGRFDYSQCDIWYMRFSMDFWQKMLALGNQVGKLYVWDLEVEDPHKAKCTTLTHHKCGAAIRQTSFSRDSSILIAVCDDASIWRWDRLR
UniProt O95816: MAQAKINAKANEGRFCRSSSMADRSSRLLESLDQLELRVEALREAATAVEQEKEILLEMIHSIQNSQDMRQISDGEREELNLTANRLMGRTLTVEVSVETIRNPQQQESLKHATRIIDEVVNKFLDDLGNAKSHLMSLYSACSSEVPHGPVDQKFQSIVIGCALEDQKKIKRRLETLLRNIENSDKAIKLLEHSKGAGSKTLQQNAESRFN
UniProt O95571: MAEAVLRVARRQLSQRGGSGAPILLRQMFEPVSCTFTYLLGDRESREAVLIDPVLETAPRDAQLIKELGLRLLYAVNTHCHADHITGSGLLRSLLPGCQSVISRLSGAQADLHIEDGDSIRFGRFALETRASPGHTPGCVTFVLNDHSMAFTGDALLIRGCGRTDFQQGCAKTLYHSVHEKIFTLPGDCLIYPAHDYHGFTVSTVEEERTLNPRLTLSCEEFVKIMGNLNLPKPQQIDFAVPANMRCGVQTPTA
UniProt O95749: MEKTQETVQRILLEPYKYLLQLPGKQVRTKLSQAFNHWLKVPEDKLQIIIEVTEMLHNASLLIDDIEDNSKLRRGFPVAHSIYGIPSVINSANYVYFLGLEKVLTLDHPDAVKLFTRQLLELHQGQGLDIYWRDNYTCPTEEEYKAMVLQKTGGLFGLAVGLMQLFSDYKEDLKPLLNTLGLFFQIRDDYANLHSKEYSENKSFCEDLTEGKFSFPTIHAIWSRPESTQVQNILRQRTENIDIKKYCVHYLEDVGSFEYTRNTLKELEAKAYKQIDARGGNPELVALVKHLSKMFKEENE
UniProt O95801: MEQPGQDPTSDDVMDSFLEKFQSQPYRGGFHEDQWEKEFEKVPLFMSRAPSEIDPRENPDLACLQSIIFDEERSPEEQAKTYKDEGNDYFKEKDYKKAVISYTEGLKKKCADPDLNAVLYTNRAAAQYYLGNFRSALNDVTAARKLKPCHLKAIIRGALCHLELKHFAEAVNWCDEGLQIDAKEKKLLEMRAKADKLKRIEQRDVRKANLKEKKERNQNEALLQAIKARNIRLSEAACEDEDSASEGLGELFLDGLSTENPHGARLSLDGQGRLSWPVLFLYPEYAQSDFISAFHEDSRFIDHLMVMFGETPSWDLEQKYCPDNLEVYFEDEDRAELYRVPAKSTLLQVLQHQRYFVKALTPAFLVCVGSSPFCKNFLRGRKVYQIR
UniProt P06733, whole entry: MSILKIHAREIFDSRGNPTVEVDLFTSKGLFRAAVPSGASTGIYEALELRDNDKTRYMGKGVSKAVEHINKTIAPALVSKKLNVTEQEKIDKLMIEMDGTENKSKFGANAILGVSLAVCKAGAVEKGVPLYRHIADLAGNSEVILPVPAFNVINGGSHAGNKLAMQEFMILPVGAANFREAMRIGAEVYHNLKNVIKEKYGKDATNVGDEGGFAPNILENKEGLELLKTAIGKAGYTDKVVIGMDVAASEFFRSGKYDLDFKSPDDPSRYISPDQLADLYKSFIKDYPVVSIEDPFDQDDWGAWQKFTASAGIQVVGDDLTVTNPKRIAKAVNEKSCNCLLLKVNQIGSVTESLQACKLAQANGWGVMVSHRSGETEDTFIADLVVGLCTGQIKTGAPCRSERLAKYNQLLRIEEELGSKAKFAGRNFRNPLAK
UniProt P06753, whole entry: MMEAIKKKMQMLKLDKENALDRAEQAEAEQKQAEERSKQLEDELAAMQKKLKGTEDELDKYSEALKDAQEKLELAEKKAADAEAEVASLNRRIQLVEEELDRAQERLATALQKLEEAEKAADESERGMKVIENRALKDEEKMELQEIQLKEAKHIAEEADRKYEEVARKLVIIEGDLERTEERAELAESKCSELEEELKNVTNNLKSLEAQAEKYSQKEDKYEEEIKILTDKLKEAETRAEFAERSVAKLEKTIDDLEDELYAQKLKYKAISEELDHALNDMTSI

Target	NP40-soluble protein abundance (concentration: 0.1mM)	NP40-soluble protein abundance (concentration: 0.5mM)	NP40-soluble protein abundance (concentration: 1mM)	NP40-soluble protein abundance (concentration: 2mM)	NP40-soluble protein abundance (concentration: 4mM)	NP40-soluble protein abundance (concentration: 6mM)	NP40-soluble protein abundance (concentration: 8mM)	NP40-soluble protein abundance (concentration: 10mM)
UniProt O94762 and related entries	1.08 ± 0.059	1.09 ± 0.043	1.1 ± 0.093	1.14 ± 0.11	1.14 ± 0.12	1.26 ± 0.15	1.2 ± 0.13	1.2 ± 0.06
MED26 (UniProt O95402)	1.05 ± 0.024	0.93 ± 0.084	1.08 ± 0.26	1 ± 0.05	1.19 ± 0.15	1.16 ± 0.009	1.28 ± 0.028	1.29 ± 0.098
UniProt O75153 and related entries	1.04 ± 0.021	1.04 ± 0.037	0.991 ± 0.036	0.994 ± 0.04	0.976 ± 0.045	0.954 ± 0.036	0.944 ± 0.047	0.933 ± 0.046
UniProt O95163	1.13 ± 0.097	1.15 ± 0.14	1.07 ± 0.11	1.14 ± 0.2	1.16 ± 0.16	1.11 ± 0.17	1.09 ± 0.12	1.04 ± 0.12
PDCD6 (UniProt O75340)	0.951 ± 0.018	0.987 ± 0.058	0.93 ± 0.053	0.967 ± 0.087	0.898 ± 0.043	0.932 ± 0.06	0.884 ± 0.077	0.927 ± 0.089
KIF20A (UniProt O95235)	1.15 ± 0.063	1.18 ± 0.058	1.167 ± 0.011	1.22 ± 0.038	1.27 ± 0.021	1.26 ± 0.038	1.35 ± 0.091	1.39 ± 0.074
P0619_C544|P48735 (UniProt P48735)	0.993 ± 0.02	0.997 ± 0.037	0.948 ± 0.014	0.908 ± 0.042	0.898 ± 0.031	0.907 ± 0.038	0.893 ± 0.03	0.875 ± 0.045
TK1 (UniProt P04183)	1 ± 0.031	0.989 ± 0.011	0.998 ± 0.07	1.03 ± 0.022	0.994 ± 0.035	0.985 ± 0.014	0.974 ± 0.045	0.966 ± 0.036
IPO7 (UniProt O95373)	1.01 ± 0.073	1.01 ± 0.031	0.922 ± 0.047	0.936 ± 0.056	0.946 ± 0.072	0.909 ± 0.039	0.919 ± 0.043	0.923 ± 0.021
NDUFA7 (UniProt O95182)	1.07 ± 0.073	1 ± 0.043	1.24 ± 0.21	1.18 ± 0.18	1.23 ± 0.23	1.24 ± 0.22	1.38 ± 0.2	1.44 ± 0.31
SASH3 (UniProt O75995)	0.954 ± 0.059	0.955 ± 0.056	0.939 ± 0.099	0.886 ± 0.14	0.847 ± 0.16	0.865 ± 0.14	0.845 ± 0.12	0.855 ± 0.11
UniProt O95793 and related entries	0.997 ± 0.045	1.02 ± 0.044	1.1 ± 0.079	1.18 ± 0.076	1.33 ± 0.11	1.42 ± 0.13	1.54 ± 0.2	1.82 ± 0.31
UniProt O95983 and related entries	0.982 ± 0.11	0.959 ± 0.076	1.19 ± 0.2	1.23 ± 0.18	1.23 ± 0.17	1.22 ± 0.16	1.28 ± 0.16	1.33 ± 0.24
UniProt O75530 and related entries	1.15 ± 0.091	1.2 ± 0.082	1.13 ± 0.096	1.22 ± 0.11	1.25 ± 0.12	1.29 ± 0.15	1.34 ± 0.11	1.31 ± 0.12
UniProt O75431 and related entries	1.07 ± 0.13	1.04 ± 0.057	1.03 ± 0.049	1.07 ± 0.07	1.09 ± 0.056	1.03 ± 0.056	0.989 ± 0.041	1.04 ± 0.045
UniProt P06756 and related entries	0.962 ± 0.028	1.01 ± 0.023	1.06 ± 0.072	1.04 ± 0.094	1.02 ± 0.066	1.09 ± 0.093	1 ± 0.058	1.04 ± 0.092
UniProt O95628 and related entries	0.964 ± 0.028	0.909 ± 0.035	0.897 ± 0.042	0.9114 ± 0.006	0.896 ± 0.061	0.888 ± 0.014	0.879 ± 0.046	0.902 ± 0.04
UniProt P06126	1.1 ± 0.021	0.926 ± 0.13	0.963 ± 0.024	0.961 ± 0.1	0.954 ± 0.05	1 ± 0.02	0.998 ± 0.11	0.899 ± 0.023
BAG2 (UniProt O95816)	0.99 ± 0.12	0.965 ± 0.086	1.1 ± 0.19	1.11 ± 0.14	1.16 ± 0.23	1.09 ± 0.17	1.03 ± 0.18	1.07 ± 0.26
UniProt P00519 and related entries	0.938 ± 0.057	0.946 ± 0.12	1.01 ± 0.098	1.02 ± 0.13	0.979 ± 0.1	1.01 ± 0.14	1.03 ± 0.07	1.08 ± 0.12
ETHE1 (UniProt O95571)	0.999 ± 0.025	0.971 ± 0.017	0.958 ± 0.059	0.893 ± 0.066	0.901 ± 0.075	0.883 ± 0.076	0.888 ± 0.07	0.848 ± 0.067
ULK1 (UniProt O75385)	0.985 ± 0.12	1.1 ± 0.13	1.12 ± 0.076	1.12 ± 0.1	1.04 ± 0.036	1.09 ± 0.12	1.18 ± 0.18	1.1 ± 0.19
UniProt O95749 and related entries	0.947 ± 0.085	0.968 ± 0.045	0.953 ± 0.078	0.929 ± 0.093	0.914 ± 0.1	0.906 ± 0.067	0.904 ± 0.032	0.946 ± 0.069
PALM (UniProt O75781)	0.97 ± 0.023	0.85404 ± 0.00084	0.949 ± 0.036	0.895 ± 0.02	0.823 ± 0.032	0.845 ± 0.029	0.925 ± 0.069	0.992 ± 0.1
GLUD1 (UniProt P00367)	1.01 ± 0.049	1.02 ± 0.047	0.98 ± 0.062	0.974 ± 0.051	0.96 ± 0.074	0.984 ± 0.065	0.968 ± 0.072	0.926 ± 0.032
TTC4 (UniProt O95801)	0.938 ± 0.074	0.944 ± 0.068	0.921 ± 0.063	0.9 ± 0.085	0.875 ± 0.072	0.878 ± 0.056	0.91 ± 0.085	0.892 ± 0.074
VPS26A (UniProt O75436)	1.12 ± 0.089	1.05 ± 0.048	0.948 ± 0.027	0.951 ± 0.088	0.948 ± 0.072	0.924 ± 0.034	0.864 ± 0.048	0.863 ± 0.097
UniProt O75143 and related entries	0.993 ± 0.038	0.996 ± 0.042	1.01 ± 0.065	1.02 ± 0.081	0.967 ± 0.024	0.959 ± 0.088	0.937 ± 0.058	0.947 ± 0.041
UniProt P06733 and related entries	0.951 ± 0.031	0.961 ± 0.036	0.94 ± 0.04	0.894 ± 0.057	0.887 ± 0.053	0.888 ± 0.058	0.887 ± 0.047	0.875 ± 0.061
UniProt P06753-2|P06753-6|P06753-5	0.859 ± 0.19	0.696 ± 0.082	1.46 ± 0.37	1.22 ± 0.22	1.21 ± 0.26	1.16 ± 0.14	0.989 ± 0.24	1.36 ± 0.31

9 entries from above, comma-delimited.
Target,NP40-soluble protein abundance (concentration: 0.1mM),NP40-soluble protein abundance (concentration: 0.5mM),NP40-soluble protein abundance (concentration: 1mM),NP40-soluble protein abundance (concentration: 2mM),NP40-soluble protein abundance (concentration: 4mM),NP40-soluble protein abundance (concentration: 6mM),NP40-soluble protein abundance (concentration: 8mM),NP40-soluble protein abundance (concentration: 10mM)
UniProt O75431 and related entries,1.07 ± 0.13,1.04 ± 0.057,1.03 ± 0.049,1.07 ± 0.07,1.09 ± 0.056,1.03 ± 0.056,0.989 ± 0.041,1.04 ± 0.045
UniProt P06756 and related entries,0.962 ± 0.028,1.01 ± 0.023,1.06 ± 0.072,1.04 ± 0.094,1.02 ± 0.066,1.09 ± 0.093,1 ± 0.058,1.04 ± 0.092
UniProt O95628 and related entries,0.964 ± 0.028,0.909 ± 0.035,0.897 ± 0.042,0.9114 ± 0.006,0.896 ± 0.061,0.888 ± 0.014,0.879 ± 0.046,0.902 ± 0.04
UniProt P06126,1.1 ± 0.021,0.926 ± 0.13,0.963 ± 0.024,0.961 ± 0.1,0.954 ± 0.05,1 ± 0.02,0.998 ± 0.11,0.899 ± 0.023
BAG2 (UniProt O95816),0.99 ± 0.12,0.965 ± 0.086,1.1 ± 0.19,1.11 ± 0.14,1.16 ± 0.23,1.09 ± 0.17,1.03 ± 0.18,1.07 ± 0.26
UniProt P00519 and related entries,0.938 ± 0.057,0.946 ± 0.12,1.01 ± 0.098,1.02 ± 0.13,0.979 ± 0.1,1.01 ± 0.14,1.03 ± 0.07,1.08 ± 0.12
ETHE1 (UniProt O95571),0.999 ± 0.025,0.971 ± 0.017,0.958 ± 0.059,0.893 ± 0.066,0.901 ± 0.075,0.883 ± 0.076,0.888 ± 0.07,0.848 ± 0.067
ULK1 (UniProt O75385),0.985 ± 0.12,1.1 ± 0.13,1.12 ± 0.076,1.12 ± 0.1,1.04 ± 0.036,1.09 ± 0.12,1.18 ± 0.18,1.1 ± 0.19
UniProt O95749 and related entries,0.947 ± 0.085,0.968 ± 0.045,0.953 ± 0.078,0.929 ± 0.093,0.914 ± 0.1,0.906 ± 0.067,0.904 ± 0.032,0.946 ± 0.069

— the supplement of paper PMC6411743
